These are yes or no findings as the source states them, for the method shown. In cells and extracts the contact can be indirect. Here binding means that the protein was enriched with, or labelled near, the bait; the list need not be complete.
B1: KIF2C (protein, UniProt Q99661 1-725)
chain: MAMDSSLQARLFPGLAIKIQRSNGLIHSANVRTVNLEKSCVSVEWAEGGATKGKEIDFDDVAAINPELLQLLPLHPKDNLPLQENVTIQKQKRRSVNSKIPAPKESLRSRSTRMSTVSELRITAQENDMEVELPAAANSRKQFSVPPAPTRPSCPAVAEIPLRMVSEEMEEQVHSIRGSSSANPVNSVRRKSCLVKEVEKMKNKREEKKAQNSEMRMKRAQEYDSSFPNWEFARMIKEFRATLECHPLTMTDPIEEHRICVCVRKRPLNKQELAKKEIDVISIPSKCLLLVHEPKLKVDLTKYLENQAFCFDFAFDETASNEVVYRFTARPLVQTIFEGGKATCFAYGQTGSGKTHTMGGDLSGKAQNASKGIYAMASRDVFLLKNQPCYRKLGLEVYVTFFEIYNGKLFDLLNKKAKLRVLEDGKQQVQVVGLQEHLVNSADDVIKMIDMGSACRTSGQTFANSNSSRSHACFQIILRAKGRMHGKFSLVDLAGNERGADTSSADRQTRMEGAEINKSLLALKECIRALGQNKAHTPFRESKLTQVLRDSFIGENSRTCMIATISPGISSCEYTLNTLRYADRVKELSPHSGPSGEQLIQMETEEMEACSNGALIPGNLSKEEEELSSQMSSFNEAMTQIRELEEKAMEELKEIIQQGPDWLELSEMTEQPDYDLETFVNKAESALAQQAKHFSALRDVIKALRLAMQLEEQASRQISSKKRPQ

Sequences of proteins named here, by UniProt entry; tags and fusion partners are left off.
UniProt P11142: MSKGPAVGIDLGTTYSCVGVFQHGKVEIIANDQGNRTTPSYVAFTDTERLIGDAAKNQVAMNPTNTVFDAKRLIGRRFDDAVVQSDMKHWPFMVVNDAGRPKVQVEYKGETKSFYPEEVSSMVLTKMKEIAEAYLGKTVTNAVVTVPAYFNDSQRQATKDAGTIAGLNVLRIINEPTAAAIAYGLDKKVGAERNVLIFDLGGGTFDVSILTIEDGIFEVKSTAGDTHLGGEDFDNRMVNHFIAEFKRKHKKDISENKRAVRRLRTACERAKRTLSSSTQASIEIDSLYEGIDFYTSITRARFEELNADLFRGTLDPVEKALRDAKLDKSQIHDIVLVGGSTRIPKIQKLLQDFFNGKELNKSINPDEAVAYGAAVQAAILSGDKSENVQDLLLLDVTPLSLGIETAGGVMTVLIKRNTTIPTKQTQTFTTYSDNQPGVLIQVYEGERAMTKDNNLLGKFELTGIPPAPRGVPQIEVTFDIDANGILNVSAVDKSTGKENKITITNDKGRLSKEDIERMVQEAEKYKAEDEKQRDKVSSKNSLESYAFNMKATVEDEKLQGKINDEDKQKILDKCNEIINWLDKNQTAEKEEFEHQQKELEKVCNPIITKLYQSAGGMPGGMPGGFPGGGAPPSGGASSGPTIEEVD
UniProt O14965: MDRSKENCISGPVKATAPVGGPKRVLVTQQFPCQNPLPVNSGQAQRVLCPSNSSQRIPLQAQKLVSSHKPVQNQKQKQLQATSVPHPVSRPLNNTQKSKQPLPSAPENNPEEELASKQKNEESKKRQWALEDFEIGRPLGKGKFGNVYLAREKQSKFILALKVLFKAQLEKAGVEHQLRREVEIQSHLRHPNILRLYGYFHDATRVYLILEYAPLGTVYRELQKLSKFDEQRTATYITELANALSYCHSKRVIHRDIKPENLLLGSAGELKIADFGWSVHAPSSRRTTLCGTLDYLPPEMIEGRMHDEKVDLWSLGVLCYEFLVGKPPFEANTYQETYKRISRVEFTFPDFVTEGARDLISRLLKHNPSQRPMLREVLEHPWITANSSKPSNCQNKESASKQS
UniProt O43684: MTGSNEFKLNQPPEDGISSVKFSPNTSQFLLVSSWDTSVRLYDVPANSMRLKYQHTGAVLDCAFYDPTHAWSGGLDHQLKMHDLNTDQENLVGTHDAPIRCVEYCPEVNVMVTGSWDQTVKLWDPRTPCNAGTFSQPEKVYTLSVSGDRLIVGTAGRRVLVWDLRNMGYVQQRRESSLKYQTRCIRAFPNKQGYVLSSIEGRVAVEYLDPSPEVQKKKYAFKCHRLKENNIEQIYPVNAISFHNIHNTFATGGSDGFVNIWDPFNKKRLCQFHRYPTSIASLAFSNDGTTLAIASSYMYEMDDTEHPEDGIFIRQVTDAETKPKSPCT
UniProt P52732: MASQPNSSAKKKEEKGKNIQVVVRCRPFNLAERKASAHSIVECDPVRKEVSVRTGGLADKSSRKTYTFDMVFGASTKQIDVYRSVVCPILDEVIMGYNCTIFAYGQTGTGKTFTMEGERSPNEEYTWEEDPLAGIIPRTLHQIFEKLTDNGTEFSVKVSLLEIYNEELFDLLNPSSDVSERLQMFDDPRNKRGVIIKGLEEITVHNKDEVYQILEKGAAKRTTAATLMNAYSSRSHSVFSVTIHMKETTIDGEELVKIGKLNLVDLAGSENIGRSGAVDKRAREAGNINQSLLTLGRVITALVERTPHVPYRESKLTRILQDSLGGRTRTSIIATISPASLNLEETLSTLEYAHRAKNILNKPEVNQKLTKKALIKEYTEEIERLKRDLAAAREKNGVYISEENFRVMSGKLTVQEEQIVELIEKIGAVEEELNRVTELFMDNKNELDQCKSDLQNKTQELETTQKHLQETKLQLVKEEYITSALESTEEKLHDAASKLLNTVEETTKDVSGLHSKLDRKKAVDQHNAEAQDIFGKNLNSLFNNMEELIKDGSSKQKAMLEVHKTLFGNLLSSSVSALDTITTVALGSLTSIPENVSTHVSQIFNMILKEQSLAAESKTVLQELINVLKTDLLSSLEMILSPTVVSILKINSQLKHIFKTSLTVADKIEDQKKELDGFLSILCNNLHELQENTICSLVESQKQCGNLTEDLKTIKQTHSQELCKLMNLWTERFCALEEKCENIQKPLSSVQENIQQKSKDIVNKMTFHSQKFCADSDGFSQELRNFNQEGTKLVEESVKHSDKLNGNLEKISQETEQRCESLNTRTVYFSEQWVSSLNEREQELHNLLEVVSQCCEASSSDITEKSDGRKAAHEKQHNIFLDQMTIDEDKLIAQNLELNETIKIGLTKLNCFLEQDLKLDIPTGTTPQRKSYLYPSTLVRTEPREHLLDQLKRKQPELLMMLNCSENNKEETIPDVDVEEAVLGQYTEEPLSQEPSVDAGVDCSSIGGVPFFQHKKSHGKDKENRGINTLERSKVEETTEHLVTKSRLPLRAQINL
UniProt Q15021: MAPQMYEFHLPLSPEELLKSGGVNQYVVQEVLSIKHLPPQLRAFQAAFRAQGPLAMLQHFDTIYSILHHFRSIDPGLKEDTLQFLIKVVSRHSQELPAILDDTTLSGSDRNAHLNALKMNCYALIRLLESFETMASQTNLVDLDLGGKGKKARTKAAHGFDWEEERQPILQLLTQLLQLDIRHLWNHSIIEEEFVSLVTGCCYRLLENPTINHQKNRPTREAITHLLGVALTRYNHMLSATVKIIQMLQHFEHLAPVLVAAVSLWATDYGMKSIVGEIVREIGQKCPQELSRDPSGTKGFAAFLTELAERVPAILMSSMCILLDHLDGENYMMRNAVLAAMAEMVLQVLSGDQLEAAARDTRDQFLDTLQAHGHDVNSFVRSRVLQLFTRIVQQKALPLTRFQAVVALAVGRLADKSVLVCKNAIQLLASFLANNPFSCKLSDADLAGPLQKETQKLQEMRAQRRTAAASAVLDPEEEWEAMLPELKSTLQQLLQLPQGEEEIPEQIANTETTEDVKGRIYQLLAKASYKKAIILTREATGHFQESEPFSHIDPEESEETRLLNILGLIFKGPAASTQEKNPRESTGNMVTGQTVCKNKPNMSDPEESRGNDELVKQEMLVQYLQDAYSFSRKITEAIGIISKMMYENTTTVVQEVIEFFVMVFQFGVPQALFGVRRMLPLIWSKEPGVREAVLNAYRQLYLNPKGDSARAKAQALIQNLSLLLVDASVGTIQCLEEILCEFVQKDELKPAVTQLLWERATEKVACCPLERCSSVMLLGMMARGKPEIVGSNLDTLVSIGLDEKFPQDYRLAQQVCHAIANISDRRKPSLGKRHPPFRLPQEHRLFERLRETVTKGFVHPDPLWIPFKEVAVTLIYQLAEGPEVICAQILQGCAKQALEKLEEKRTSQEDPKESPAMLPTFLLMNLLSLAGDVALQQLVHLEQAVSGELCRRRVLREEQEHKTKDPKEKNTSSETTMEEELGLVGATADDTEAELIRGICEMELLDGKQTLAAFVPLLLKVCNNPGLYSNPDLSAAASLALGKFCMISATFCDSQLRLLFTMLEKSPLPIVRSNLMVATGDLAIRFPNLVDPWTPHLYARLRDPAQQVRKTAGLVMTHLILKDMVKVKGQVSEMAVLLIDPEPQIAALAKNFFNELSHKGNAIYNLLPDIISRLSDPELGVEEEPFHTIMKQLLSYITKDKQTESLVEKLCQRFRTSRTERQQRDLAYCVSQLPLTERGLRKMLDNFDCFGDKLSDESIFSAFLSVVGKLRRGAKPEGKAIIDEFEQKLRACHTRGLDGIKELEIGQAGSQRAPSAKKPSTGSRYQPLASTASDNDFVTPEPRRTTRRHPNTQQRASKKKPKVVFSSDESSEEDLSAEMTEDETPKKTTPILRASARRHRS
UniProt P53350: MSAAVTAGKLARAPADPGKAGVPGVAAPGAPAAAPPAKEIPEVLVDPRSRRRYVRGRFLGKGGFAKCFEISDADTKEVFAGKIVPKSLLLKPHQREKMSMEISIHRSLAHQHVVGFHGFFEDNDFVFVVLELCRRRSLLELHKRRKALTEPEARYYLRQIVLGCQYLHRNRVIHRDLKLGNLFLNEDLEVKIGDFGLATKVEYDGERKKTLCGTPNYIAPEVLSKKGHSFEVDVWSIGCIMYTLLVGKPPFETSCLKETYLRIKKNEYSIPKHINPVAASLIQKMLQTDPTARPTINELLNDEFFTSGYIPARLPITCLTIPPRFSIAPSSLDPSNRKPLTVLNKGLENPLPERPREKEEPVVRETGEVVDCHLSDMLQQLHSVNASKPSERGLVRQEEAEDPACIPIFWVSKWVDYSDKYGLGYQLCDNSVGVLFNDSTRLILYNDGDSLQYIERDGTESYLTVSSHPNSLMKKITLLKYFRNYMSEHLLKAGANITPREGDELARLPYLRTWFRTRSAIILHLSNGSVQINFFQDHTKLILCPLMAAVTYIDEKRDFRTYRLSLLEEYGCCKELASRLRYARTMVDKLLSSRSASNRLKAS
UniProt Q9ULW0: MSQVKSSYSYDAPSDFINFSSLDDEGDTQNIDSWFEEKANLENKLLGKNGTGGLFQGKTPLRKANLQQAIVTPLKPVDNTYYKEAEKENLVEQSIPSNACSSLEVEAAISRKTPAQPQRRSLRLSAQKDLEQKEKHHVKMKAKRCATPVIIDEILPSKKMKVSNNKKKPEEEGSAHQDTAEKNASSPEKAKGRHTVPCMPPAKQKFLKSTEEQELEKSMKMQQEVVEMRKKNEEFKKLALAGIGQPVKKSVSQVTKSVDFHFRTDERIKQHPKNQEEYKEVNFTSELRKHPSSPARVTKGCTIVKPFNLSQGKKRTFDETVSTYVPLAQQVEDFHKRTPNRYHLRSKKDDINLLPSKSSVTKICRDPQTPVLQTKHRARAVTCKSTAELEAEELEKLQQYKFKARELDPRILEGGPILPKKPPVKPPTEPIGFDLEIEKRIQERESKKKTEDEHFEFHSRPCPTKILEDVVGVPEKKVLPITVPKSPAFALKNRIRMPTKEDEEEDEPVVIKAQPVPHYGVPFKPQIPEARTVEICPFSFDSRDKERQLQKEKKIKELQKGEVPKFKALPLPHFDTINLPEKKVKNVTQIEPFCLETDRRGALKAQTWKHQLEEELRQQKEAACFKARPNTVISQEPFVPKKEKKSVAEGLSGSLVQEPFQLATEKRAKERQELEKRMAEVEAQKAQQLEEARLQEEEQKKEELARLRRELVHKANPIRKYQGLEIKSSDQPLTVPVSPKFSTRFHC
UniProt P40763: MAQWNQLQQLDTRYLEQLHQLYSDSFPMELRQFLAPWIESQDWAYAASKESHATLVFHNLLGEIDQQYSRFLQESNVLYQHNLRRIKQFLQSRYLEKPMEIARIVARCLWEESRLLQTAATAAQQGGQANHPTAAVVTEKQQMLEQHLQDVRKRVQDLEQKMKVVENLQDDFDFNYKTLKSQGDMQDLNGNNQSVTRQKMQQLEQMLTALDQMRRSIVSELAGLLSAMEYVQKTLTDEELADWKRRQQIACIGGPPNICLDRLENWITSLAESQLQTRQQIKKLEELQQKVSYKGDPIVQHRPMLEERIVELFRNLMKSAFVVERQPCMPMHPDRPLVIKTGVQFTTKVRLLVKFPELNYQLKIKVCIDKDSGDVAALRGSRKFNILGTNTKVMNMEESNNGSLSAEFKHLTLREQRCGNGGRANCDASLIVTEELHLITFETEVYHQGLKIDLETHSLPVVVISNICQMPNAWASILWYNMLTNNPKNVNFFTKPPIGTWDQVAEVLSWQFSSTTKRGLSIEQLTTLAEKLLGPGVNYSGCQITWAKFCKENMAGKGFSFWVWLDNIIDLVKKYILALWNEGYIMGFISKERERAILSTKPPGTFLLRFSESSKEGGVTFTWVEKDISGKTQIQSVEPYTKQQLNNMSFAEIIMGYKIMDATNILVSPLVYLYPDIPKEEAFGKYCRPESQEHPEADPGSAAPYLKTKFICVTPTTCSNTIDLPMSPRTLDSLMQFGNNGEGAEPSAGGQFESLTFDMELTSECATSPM

Target: heat shock cognate 70 (HSC70) (human (endogenous in MDA-MB-468)) (UniProt P11142)
Experiment: affinity purification with mass spectrometry; YK5-B epichaperomics in MDA-MB-468: probe (25-75 µM, 4 h) added to live cells then streptavidin beads, or YK5-B beads added to 500 µg lysate overnight; SDS-PAGE, in-gel digestion, label-free LC-MS/MS; control bait; grades A-C by p-value

Molecule	binding
Aurora kinase A (AURKA) (from UniProt O14965 1-403)	binds
BUB3 (from UniProt O43684 1-328)	binds
KIF11 also called Eg5 (from UniProt P52732 1-1056)	binds
NCAPD2 (from UniProt Q15021 1-1401)	binds
Nuclear Mitotic Apparatus Protein 1 (NUMA1 or NuMA) (from UniProt Q14980 1-2115)	binds
Polo Like Kinase 1 (PLK1) (from UniProt P53350 1-603)	binds
TPX2 microtubule nucleation factor (from UniProt Q9ULW0 1-747)	binds
signal transducer and activator of transcription 3 (STAT3) (from UniProt P40763 1-770)	binds

Target: heat shock cognate 70 (HSC70) (human (endogenous in MDA-MB-468)) (UniProt P11142)
Experiment: as above
Remark: another data set of the same source

Molecule	binding
B1	binds

Reference: publication PMC10290137, “Systems-level analyses of protein-protein interaction network dysfunctions via epichaperomics identify cancer-specific mechanisms of stress adaptation” (Nature Communications, 2023)
